Laboratory results reported in doi:10.1101/778779.
Changes are numbered by the printed parent chain. Where two headings read alike, the source gives them in different places. No constants are given. Whether binding was seen depends on the method and setting. Some results given as binding are weak or reduced against the parent protein; the word gives no strength. Where a sequence is shown, tags or fusion partners need not be part of it. One block for each binder: values may come before it.

Amino acid sequences for entries named in this document (tags omitted). A change or cut given only in a name is not applied to a line headed by its entry.
UniProt O96013: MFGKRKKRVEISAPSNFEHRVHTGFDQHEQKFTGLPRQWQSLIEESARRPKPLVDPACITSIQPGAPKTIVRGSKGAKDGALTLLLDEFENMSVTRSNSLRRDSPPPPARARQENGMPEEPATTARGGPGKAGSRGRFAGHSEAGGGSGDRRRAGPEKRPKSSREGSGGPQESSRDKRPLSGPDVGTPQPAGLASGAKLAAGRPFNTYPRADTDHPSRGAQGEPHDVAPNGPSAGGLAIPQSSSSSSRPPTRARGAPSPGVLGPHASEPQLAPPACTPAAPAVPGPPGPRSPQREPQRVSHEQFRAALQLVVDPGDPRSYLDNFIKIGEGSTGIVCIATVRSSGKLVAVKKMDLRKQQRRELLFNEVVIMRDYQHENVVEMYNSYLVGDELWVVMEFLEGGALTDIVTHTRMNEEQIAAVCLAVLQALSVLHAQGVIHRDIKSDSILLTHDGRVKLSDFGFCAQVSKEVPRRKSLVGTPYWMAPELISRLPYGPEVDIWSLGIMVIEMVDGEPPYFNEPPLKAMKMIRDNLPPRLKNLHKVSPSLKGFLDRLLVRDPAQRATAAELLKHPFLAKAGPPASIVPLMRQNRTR

What was measured:
Experiment in all cases: iBox-PAK4cat in-cellulo crystal assay
[1] = molecular target: T1, iBox-PAK4cat-AAAA (human) (UniProt Q96EL1+O96013)
T1 sequence: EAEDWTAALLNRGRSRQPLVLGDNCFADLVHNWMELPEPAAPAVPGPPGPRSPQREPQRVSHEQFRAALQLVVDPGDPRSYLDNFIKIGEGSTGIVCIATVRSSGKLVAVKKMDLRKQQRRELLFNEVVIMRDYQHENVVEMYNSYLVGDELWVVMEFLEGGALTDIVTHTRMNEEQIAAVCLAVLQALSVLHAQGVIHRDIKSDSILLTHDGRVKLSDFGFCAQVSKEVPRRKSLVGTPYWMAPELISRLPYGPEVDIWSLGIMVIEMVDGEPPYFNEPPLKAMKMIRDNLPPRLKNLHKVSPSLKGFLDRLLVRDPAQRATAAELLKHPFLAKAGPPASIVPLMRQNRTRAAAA

iBox-PAK4cat-ATRL [2] = molecular target: T2, iBox-PAK4cat-ATRL (UniProt Q96EL1)
T2 sequence: T1 sequence with A354T, A355R, A356L

iBox-PAK4cat-DARL [3] = molecular target: T3, iBox-PAK4cat-DARL (UniProt Q96EL1)
T3 sequence: T1 sequence with A353D, A355R, A356L

iBox-PAK4cat-DERL [4] = molecular target: T4, iBox-PAK4cat-DERL (UniProt Q96EL1)
T4 sequence: T1 sequence with A353D, A354E, A355R, A356L

iBox-PAK4cat-DTAL [5] = molecular target: T5, iBox-PAK4cat-DTAL (UniProt Q96EL1)
T5 sequence: T1 sequence with A353D, A354T, A356L

iBox-PAK4cat-DTRA [6] = molecular target: T6, iBox-PAK4cat-DTRA (UniProt Q96EL1)
T6 sequence: T1 sequence with A353D, A354T, A355R

iBox-PAK4cat-DTRL [7] = molecular target: T7, iBox-PAK4cat-DTRL (UniProt Q96EL1)
T7 sequence: T1 sequence with A353D, A354T, A355R, A356L

iBox-PAK4cat-ATRL [8] = molecular target: T2, iBox-PAK4cat-ATRL; remark: listed apart in the source
iBox-PAK4cat-DARL [9] = molecular target: T3, iBox-PAK4cat-DARL; remark: listed apart in the source
iBox-PAK4cat-DERL [10] = molecular target: T4, iBox-PAK4cat-DERL; remark: listed apart in the source
iBox-PAK4cat-DTAL [11] = molecular target: T5, iBox-PAK4cat-DTAL; remark: listed apart in the source
iBox-PAK4cat-DTRA [12] = molecular target: T6, iBox-PAK4cat-DTRA; remark: listed apart in the source
iBox-PAK4cat-DTRL [13] = molecular target: T7, iBox-PAK4cat-DTRL; remark: listed apart in the source

- binding [1]: no binding
- binding (iBox-PAK4cat-ATRL [2]): binds
- binding (iBox-PAK4cat-DARL [3]): binds
- binding (iBox-PAK4cat-DERL [4]): binds
- binding (iBox-PAK4cat-DTAL [5]): binds
- binding (iBox-PAK4cat-DTRA [6]): no binding
- binding (iBox-PAK4cat-DTRL [7]): binds
- binding (iBox-PAK4cat-ATRL [8]): binds
- binding (iBox-PAK4cat-DARL [9]): binds
- binding (iBox-PAK4cat-DERL [10]): binds
- binding (iBox-PAK4cat-DTAL [11]): binds
- binding (iBox-PAK4cat-DTRA [12]): no binding
- binding (iBox-PAK4cat-DTRL [13]): binds
B1: GFP-NHERF1PDZ1 (NHERF1 residues 11-120) (domain or fragment, UniProt O14745 11-120)
chain: LPRLCCLEKGPNGYGFHLHGEKGKLGQYIRLVEPGSPAEKAGLLAGDRLVEVNGENVEKETHQQVVSRIRAALNAVRLLVVDPETDEQLQKLGVQVREELLRAQEAPGQA

- binding [1]: no binding
- binding (iBox-PAK4cat-ATRL [2]): binds
- binding (iBox-PAK4cat-DARL [3]): binds
- binding (iBox-PAK4cat-DERL [4]): binds
- binding (iBox-PAK4cat-DTAL [5]): binds
- binding (iBox-PAK4cat-DTRA [6]): no binding
- binding (iBox-PAK4cat-DTRL [7]): binds
- binding (iBox-PAK4cat-ATRL [8]): binds
- binding (iBox-PAK4cat-DARL [9]): binds
- binding (iBox-PAK4cat-DERL [10]): binds
- binding (iBox-PAK4cat-DTAL [11]): binds
- binding (iBox-PAK4cat-DTRA [12]): no binding
- binding (iBox-PAK4cat-DTRL [13]): binds
B2: GFP-NHERF1PDZ2 (NHERF1 residues 150-270) (domain or fragment, UniProt O14745 150-270)
chain: LRPRLCTMKKGPSGYGFNLHSDKSKPGQFIRSVDPDSPAEASGLRAQDRIVEVNGVCMEGKQHGDVVSAIRAGGDETKLLVVDRETDEFFKKCRVIPSQEHLNGPLPVPFTNGEIQKENSR
